Assay results published in article PMC12480156, “From biophysical interaction to structural modeling: bi-terminal G and TGS domains drive rice OsYchF1-OsGAP1 complex formation” (Botanical Studies, 2025).
No constants are given. Whether binding was seen depends on the method and setting. Some entries that bind do so weakly or less than the wild type.

What was measured:
Assay in all cases: two-hybrid; OsYchF1 and truncated derivatives in pGBKT7 (bait), OsGAP1 in pGADT7 (prey), co-transformed into yeast strain AH109; growth on SD/-Leu-Trp-His-Ade media, 7 days at 30 °C
[1] = target: T1, pGBKT7-OsYchF1 (TGS domain) (rice (Oryza sativa)) (UniProt Q6Z1J6)
T1 sequence: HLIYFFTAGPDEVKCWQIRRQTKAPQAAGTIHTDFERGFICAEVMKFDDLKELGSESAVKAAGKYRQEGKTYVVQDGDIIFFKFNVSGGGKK

[2] = target: T2, pGBKT7-OsYchF1 (G domain) (rice (Oryza sativa)) (UniProt Q6Z1J6)
T2 sequence: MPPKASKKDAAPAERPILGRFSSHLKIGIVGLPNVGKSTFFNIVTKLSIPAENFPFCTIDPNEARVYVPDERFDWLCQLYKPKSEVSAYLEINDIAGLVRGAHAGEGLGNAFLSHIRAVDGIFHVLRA

[3] = target: T3, pGBKT7-OsYchF1 (helical domain) (rice (Oryza sativa)) (UniProt Q6Z1J6)
T3 sequence: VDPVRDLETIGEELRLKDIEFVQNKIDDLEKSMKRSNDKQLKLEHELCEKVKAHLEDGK

binding [1]: binds
binding [2]: binds
binding [3]: no binding
B1: pGADT7-OsGAP1 (protein, UniProt Q6YWF1 1-165)
chain: MLGHLVGLVKVRVVRGVNLAVRDLRSSDPYVIVRMGKQKLKTRVIKKTTNPEWNDELTLSIEDPAVPVRLEVYDKDTFIDDAMGNAELDIRPLVEVVKMKIEGVADNTVVKKVVPNRQNCLAEESTIYISEGKVKQDVVLRLRDVECGEIELQLQWVDIPGSKGV
